PubChem BioAssay AID1259308, NCATS, 2017
The whole screen tested about 59,000 reagents; this is a part drawn at random. In the full data, about 1,510 (2.6%) were called active. 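Calls use total luciferase alone and ignore viability, so some active siRNAs may act by altering cell number.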 The numbers tell different reagents against one gene apart. Reagent sequences are not shown.

Test: 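Genes whose loss raises luciferase production in HEK293 cells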 (primary screen)
System: human HEK293 embryonic kidney cells stably expressing firefly luciferase (HEK-CMV-Luc2-Hygro)
Reagents: single siRNA against human genes, 0.8 pmol siRNA per well
Time to read-out: 72 h
Measurement: 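Luciferase light (ONE-Glo) measured on one replicate plate set and viability (CellTiter-Glo) on the other, scaled to a negative control siRNA, with robust z-scores and luciferase per cell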
Direction: total luciferase, z-score and total luciferase, % of control: higher = more reporter protein produced; luciferase per cell, z-score: higher = more reporter output per viable cell; viable cells, % of control: higher = more viable cells
Active means: 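An siRNA counts as active if its total luciferase robust z-score exceeds 3; genes with two or more such siRNAs out of three were retested with fresh siRNAs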
Calls: active = raised luciferase; inactive = no rise

no.	gene knocked down	reagent	total luciferase, z-score	total luciferase, % of control	luciferase per cell, z-score	viable cells, % of control	activity call
1	ARHGAP27P1	1	4.09	163	3.58	71	active
2	ARHGAP27P1	2	-0.745	67.1	-0.244	79.9	inactive
3	ARHGAP27P1	3	-2.01	41.9	-1.81	75.3	inactive
4	PAPOLA-DT	1	-0.326	75.4	0.0962	82.2	inactive
5	PAPOLA-DT	2	0.799	97.8	1.87	66.8	inactive
6	PAPOLA-DT	3	0.435	90.5	0.811	81.7	inactive
7	PHF14	1	-1.13	59.4	-1.55	99.9	inactive
8	PHF14	2	0.592	93.7	-0.19	110	inactive
9	PHF14	3	-0.48	72.3	0.119	78.3	inactive
10	P4HA2	1	2.82	138	1.69	98.8	inactive
11	P4HA2	2	2.35	129	2.13	82	inactive
12	P4HA2	3	0.657	95	0.324	97.4	inactive
13	SLC25A35	1	0.221	86.3	0.58	82.8	inactive
14	SLC25A35	2	0.561	93.1	0.0488	103	inactive
15	SLC25A35	3	-1.13	59.4	-1.4	96	inactive
16	GTF2F1	1	0.994	102	0.182	108	inactive
17	GTF2F1	2	0.524	92.3	0.224	97.3	inactive
18	GTF2F1	3	1.56	113	1.29	89.8	inactive
19	BPHL	1	-1.38	54.4	-1.4	88	inactive
20	BPHL	2	1.16	105	0.493	103	inactive
21	BPHL	3	1.78	117	1.24	94.5	inactive
22	PTPRF	1	-0.479	72.4	0.181	77.1	inactive
23	PTPRF	2	1.58	113	1.34	89	inactive
24	PTPRF	3	-0.0321	81.2	-0.616	107	inactive
